Data as given in US20210087525A1, “COST EFFECTIVE CULTURE MEDIA AND PROTOCOL FOR HUMAN INDUCED PLURIPOTENT STEM CELLS” (NORTHWESTERN UNIVERSITY, priority 2019, published 2021).
At least one structure is not confirmed: it was looked up by name or label, or the drawing left a doubt. Some entries share one result that the patent states for a list of compounds.

Test system: hiPSC line 19-3
Assay: short-term 6-day hiPSC growth assay (media variable optimization)
Excerpt: FIG. 2A-F. Optimization of Basic Human Pluripotent Stem Cell Medium Constituents with a Short-Term Growth Assay. Results are normalized to initial medium component concentrations shown with a dark gray bar, optimizations were completed using short-term 6-day growth assay. […] (A) Comparison of the effect of recombinant human IGF1 LR3 (n=3) and recombinant human insulin (n=18-22) concentrations on relative growth. (B) L-ascorbic acid 2-phosphate (n=19-27). (C) Transferrin (n=2-20). (D) Sodium selenite (n=3-20). (E) FGF2-K128N (n=3-12). (F) TGFb1 (n=20-25). n=full experimental replicates, unpaired Student's T-test, *P≤0.05, **P≤0.01, ***P≤0.005, ****P≤0.0001, n.s.=not significant.
FIG. 3A-H. Optimization of Additional Human Pluripotent Stem Cell Medium Constituents in a Short-Term Assay. E8 medium component concentrations are shown with a dark gray bar, optimizations were completed using a simple 6-day growth assay. […] (A) Comparison of the suitability of recombinant transferrin (10 μg ml−1) to support clonal growth with and without ROCK1/2 inhibition using Y27632 (10 μM) during the first 24 h after passage (n=3). (B) Comparison of two common ROCK1/2 inhibitors only during first 24 h after passage on relative growth (n>5). (C) Comparison of the effect of the addition of non-essential amino acids (NEAA) and chemically defined lipids (n=5) on relative growth. (D) Fatty acid-free albumin (n=4). […]

For `O=[Se](O)O` [sodium selenite], the “concentration at which component became toxic” value (FIG. 2D) was no less than 200 ng/mL and the “necessity of component for hiPSC growth” value (short-term assay, FIG. 2) was “essential”.
